Laboratory results: PubChem BioAssay AID602196 (INSERM, 2012)
In all, the deposit lists about 23,000 reagents; below is an unselected part. Of all reagents, 455 (2%) got an active call. 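Active includes both protection and sensitisation; some change values fall well beyond the stated -50 to +50 range.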 Unmarked entries are inactive. Not all columns of the deposit are shown. Reagent sequences are not shown. The record does not give: the amount of reagent.

Test: 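Modifiers of cisplatin sensitivity in A549 cells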
Cell system: human A549 lung cancer cells
Reagents: siRNA pair against human genes
Timing: 48 h transfection before cisplatin; time from cisplatin to read-out not stated
Challenge: cisplatin at a dose killing half of control-siRNA cells; exact dose and duration not given
Measurement: 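Shift in cisplatin death relative to control siRNA, from -50 (all cells die) to +50 (no cells die); siRNAs harmful on their own scored 0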
Direction: two-siRNA summed score (-2 to +2): higher = both siRNAs protect from cisplatin killing; -2 means both sensitise
Active means: 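Each siRNA scores 0 if harmful alone by LDH or WST-1, otherwise +1 if it reduces and -1 if it increases cisplatin killing; a gene is active when both siRNAs agree (sum +2 or -2)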
Calls: active = both siRNAs shift cisplatin killing the same way; inactive = no consistent shift, or siRNA harmful alone

PON3
- two-siRNA summed score (-2 to +2): 0

LAMP3
- two-siRNA summed score (-2 to +2): -1

SLC25A3
- two-siRNA summed score (-2 to +2): -1

AARS1
- two-siRNA summed score (-2 to +2): 0

MAPKBP1
- two-siRNA summed score (-2 to +2): 1

MGC70870
- two-siRNA summed score (-2 to +2): 0

KLF17
- two-siRNA summed score (-2 to +2): 0

NCR3LG1
- two-siRNA summed score (-2 to +2): 2 (active)

COPB1
- two-siRNA summed score (-2 to +2): 0

FAM204A
- two-siRNA summed score (-2 to +2): 0

AQP2
- two-siRNA summed score (-2 to +2): 0

LOC284672
- two-siRNA summed score (-2 to +2): -1

ZGPAT
- two-siRNA summed score (-2 to +2): 0

LOC200916
- two-siRNA summed score (-2 to +2): 0

ZSCAN1
- two-siRNA summed score (-2 to +2): 1

ARFGEF3
- two-siRNA summed score (-2 to +2): 1

INTS10
- two-siRNA summed score (-2 to +2): -1

PLEKHO2
- two-siRNA summed score (-2 to +2): 0

NUDCD1
- two-siRNA summed score (-2 to +2): 0

GPM6B
- two-siRNA summed score (-2 to +2): 0

LOC388914
- two-siRNA summed score (-2 to +2): 0

TNFRSF11A
- two-siRNA summed score (-2 to +2): 0

ZC3H7B
- two-siRNA summed score (-2 to +2): 1

CFAP44
- two-siRNA summed score (-2 to +2): 0

LOC441377
- two-siRNA summed score (-2 to +2): 0

LINC03042
- two-siRNA summed score (-2 to +2): 0

ANOS1
- two-siRNA summed score (-2 to +2): 1

EMP1
- two-siRNA summed score (-2 to +2): 1

CLN6
- two-siRNA summed score (-2 to +2): 0

SLC15A3
- two-siRNA summed score (-2 to +2): 0

SHC3
- two-siRNA summed score (-2 to +2): 0

A portion taken from the entries so far, as a working copy:
KLF17
- two-siRNA summed score (-2 to +2): 0

NCR3LG1
- two-siRNA summed score (-2 to +2): 2 (active)

COPB1
- two-siRNA summed score (-2 to +2): 0

FAM204A
- two-siRNA summed score (-2 to +2): 0
